Source: PMC9537309
These are yes or no findings as the source states them, for the method shown. In cells and extracts the contact can be indirect. Some binding calls cover weakened binding; strength is not graded here. Where a sequence is shown, tags or fusion partners need not be part of it.

By UniProt entry, the sequences of proteins in these tests, tags left out.
UniProt Q15717: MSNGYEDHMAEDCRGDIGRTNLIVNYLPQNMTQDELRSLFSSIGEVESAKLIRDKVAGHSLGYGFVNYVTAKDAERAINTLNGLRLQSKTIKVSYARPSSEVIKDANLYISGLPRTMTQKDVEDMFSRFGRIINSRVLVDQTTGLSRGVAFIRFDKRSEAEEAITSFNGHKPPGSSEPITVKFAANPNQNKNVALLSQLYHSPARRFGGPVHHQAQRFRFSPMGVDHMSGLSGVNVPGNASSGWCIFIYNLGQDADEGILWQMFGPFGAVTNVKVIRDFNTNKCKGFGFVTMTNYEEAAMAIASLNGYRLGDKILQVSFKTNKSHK

Molecular target: T1, FLAG-tagged DND1 wild-type (Dead End, full-length human protein 1-353) (human) (UniProt Q8IYX4)
T1 sequence: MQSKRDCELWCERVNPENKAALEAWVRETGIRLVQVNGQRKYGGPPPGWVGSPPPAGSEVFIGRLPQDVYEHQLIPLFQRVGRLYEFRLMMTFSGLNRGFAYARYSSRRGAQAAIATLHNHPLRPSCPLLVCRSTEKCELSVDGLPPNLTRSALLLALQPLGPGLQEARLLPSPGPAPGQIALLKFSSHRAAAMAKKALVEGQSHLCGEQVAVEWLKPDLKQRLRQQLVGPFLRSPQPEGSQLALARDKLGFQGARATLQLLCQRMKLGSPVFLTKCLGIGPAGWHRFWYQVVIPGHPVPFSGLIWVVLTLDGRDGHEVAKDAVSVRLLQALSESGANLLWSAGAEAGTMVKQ
Test: co-IP; same FLAG-M2 immunoprecipitation from transfected HEK293T lysate; beads washed twice in IP-Lysis buffer and five times in 1x TBS pH 7.4, eluted with 0.1 M glycine pH 3.0; western blot

- binding: binds
Substance: ELAVL1/HuR (from UniProt Q15717 1-326)
